These are yes or no findings as the source states them, for the method shown. In cells and extracts the contact can be indirect. Some binding calls cover weakened binding; strength is not graded here.
Experiments:
[1] = target: SRGAP1-GFP (SLIT-ROBO Rho GTPase activating protein 1 fused to GFP) (human) (UniProt Q7Z6B7); assay: co-IP; GFP-trap of HEK293T cells co-transfected with SRGAP1-GFP and WT/3YF/3YD cortactin-mCherry; blots with anti-GFP and anti-mCherry antibodies
[2] = target: cortactin-GFP (untreated) (human) (UniProt Q14247); assay: pull-down; cortactin-GFP affinity-isolated on GFP-trap beads from HEK293T cells (untreated, lambda phosphatase-treated, or from cells co-transfected with Src Y527F), beads incubated with lysates of cortactin-siRNA Caco-2 cells; SRGAP1 detected by blot; only the target purified

Amino acid sequences for entries named in this document (tags omitted). A change or cut given only in a name is not applied to a line headed by its entry. Chains listed by the source or under a name are the forms on record and can include a tag or linker.
UniProt Q7Z6B7: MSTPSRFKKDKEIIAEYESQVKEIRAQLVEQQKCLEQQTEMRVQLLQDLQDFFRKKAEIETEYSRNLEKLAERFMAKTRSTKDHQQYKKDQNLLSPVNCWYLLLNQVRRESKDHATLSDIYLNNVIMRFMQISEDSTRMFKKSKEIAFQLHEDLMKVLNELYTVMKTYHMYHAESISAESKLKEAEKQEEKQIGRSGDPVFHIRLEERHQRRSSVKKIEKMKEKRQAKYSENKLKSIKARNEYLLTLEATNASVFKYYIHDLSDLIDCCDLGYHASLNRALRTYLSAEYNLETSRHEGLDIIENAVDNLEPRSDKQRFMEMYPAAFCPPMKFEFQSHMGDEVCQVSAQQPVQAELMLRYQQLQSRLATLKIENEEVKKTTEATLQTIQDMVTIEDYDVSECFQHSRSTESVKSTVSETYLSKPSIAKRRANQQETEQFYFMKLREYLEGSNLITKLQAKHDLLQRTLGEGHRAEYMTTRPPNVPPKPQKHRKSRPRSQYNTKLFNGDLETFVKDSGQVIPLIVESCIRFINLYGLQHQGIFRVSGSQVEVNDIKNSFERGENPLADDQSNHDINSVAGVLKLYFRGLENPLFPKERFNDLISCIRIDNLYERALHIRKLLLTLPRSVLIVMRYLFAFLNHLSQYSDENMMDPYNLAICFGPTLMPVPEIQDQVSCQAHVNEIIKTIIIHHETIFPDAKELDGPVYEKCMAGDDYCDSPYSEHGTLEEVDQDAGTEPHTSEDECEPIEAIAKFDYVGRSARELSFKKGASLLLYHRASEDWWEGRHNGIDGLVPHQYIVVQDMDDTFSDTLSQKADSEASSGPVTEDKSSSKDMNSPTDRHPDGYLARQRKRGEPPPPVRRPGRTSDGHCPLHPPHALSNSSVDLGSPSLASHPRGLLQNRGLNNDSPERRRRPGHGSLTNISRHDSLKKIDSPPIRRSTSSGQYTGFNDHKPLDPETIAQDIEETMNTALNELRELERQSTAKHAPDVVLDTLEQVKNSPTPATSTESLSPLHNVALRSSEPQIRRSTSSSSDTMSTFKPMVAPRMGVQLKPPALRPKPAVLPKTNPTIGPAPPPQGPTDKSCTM
UniProt Q14247: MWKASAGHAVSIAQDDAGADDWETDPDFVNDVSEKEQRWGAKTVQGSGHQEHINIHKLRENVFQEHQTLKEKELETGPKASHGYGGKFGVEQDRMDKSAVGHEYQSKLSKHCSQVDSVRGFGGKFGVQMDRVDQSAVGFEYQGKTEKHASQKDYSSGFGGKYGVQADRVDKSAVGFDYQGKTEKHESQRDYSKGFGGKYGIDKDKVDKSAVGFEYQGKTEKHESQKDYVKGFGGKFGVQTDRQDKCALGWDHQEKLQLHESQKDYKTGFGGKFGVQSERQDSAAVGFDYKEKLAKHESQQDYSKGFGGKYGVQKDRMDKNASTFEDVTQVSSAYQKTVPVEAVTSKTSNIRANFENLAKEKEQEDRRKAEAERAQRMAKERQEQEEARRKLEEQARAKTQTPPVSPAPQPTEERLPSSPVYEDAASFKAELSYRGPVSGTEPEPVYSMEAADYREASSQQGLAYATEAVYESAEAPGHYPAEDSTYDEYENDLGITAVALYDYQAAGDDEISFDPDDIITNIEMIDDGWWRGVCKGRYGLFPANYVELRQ
3YF cortactin-mCherry (Q14247, form named): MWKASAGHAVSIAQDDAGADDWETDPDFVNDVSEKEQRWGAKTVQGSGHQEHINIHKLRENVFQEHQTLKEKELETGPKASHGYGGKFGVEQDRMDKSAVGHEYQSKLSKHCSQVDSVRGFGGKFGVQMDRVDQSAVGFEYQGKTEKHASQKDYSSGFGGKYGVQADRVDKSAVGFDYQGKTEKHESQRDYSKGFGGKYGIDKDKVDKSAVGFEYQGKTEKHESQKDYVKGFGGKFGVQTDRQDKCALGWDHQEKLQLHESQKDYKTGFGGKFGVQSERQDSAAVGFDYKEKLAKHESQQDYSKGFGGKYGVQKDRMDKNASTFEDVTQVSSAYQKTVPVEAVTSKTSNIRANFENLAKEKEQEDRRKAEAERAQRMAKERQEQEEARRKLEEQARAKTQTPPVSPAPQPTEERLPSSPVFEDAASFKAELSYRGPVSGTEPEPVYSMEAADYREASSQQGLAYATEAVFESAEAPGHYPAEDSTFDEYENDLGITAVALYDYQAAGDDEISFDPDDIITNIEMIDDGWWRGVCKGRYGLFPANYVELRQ

Row | Substance | binding [1] | binding [2]
1 | WT cortactin-mCherry (from UniProt Q14247 1-550) | binds | –
2 | 3YF cortactin-mCherry (from UniProt Q14247 1-550) | binds | –
3 | SRGAP1 (endogenous, Caco-2) (from UniProt Q7Z6B7 1-1085) | – | binds
